Data on one molecule can be found in article PMC3813627.

This test addresses cytosine monophosphate kinase (CMPK) from E. coli, wild type with attached His-tag (E. coli) (UniProt P0A6I0). Put plainly: SEC; analytical gel filtration of purified His-tagged wild-type CMPK; low salt concentrations; both purified. (In general: In gel filtration, larger molecules generally elute earlier.)

No constants are given. Whether binding was seen depends on the method and setting. Tags and fused reporters may be left off the sequences shown.

B1: cytosine monophosphate kinase (CMPK) from E. coli, wild type with attached His-tag (enzyme, UniProt P0A6I0 1-227)
chain: MTAIAPVITIDGPSGAGKGTLCKAMAEALQWHLLDSGAIYRVLALAALHHHVDVASEDALVPLASHLDVRFVSTNGNLEVILEGEDVSGEIRTQEVANAASQVAAFPRVREALLRRQRAFRELPGLIADGRDMGTVVFPDAPVKIFLDASSEERAHRRMLQLQEKGFSVNFERLLAEIKERDDRDRNRAVAPLVPAADALVLDSTTLSIEQVIEKALQYARQKLALA
Turning to B1, the binding result was “no binding”.
